Data as given in PubChem BioAssay AID1224828 (NIAID, 2016)

- Purpose: 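Regulators linking TLR4 signalling to p65 nuclear translocation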 (primary screen)
- Cell system: mouse RAW264.7 G9 macrophage reporter cells (GFP-p65, Tnf promoter-mCherry)
- Knock-down reagent: siRNA pool against mouse genes, 100 nM
- Timing: 2 days siRNA transfection, then 40 min LPS before fixation
- Challenge: LPS (Salmonella minnesota R595) at 10 ng/ml
- Read-out: 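Microscopy ratio of nuclear to perinuclear-ring GFP-p65 signal, scaled to the plate median; gene score is the average of two replicate robust z-scores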
- Direction: p65 translocation robust z-score: higher = more nuclear NF-kappaB p65 after LPS than the plate median; nuclear/cytoplasmic p65 ratio: higher = more nuclear NF-kappaB p65
- Active means: 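Active if robust z is above 3.3 (negative regulators) or below -1.56, the Tlr4 control median (positive regulators); activity score 50 or more; control wells not called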
- Calls: active = hit (p65 shift raised or lowered); inactive = no clear change
Here is a random part of about 17,000 deposited reagents. 762 of all reagents (4.5%) were called active. 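Active calls include both raised and lowered p65 entry, mostly lowered; wells with fewer than 50 cells lack a z-score.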 The raw values are shown without normalisation. No sequences are given here.

no.	gene knocked down	p65 translocation robust z-score	nuclear/cytoplasmic p65 ratio, rep 1	nuclear/cytoplasmic p65 ratio, rep 2	low cell count flag	activity call
1	Klrc1	1.7	1.83	1.63	enough cells to score	inactive
2	Arhgap24	0.38	1.63	1.59	enough cells to score	inactive
3	Wdr74		1.16	1.04	fewer than 50 cells per well; well left out of scoring	inactive
4	Htra1	1.79	1.8	1.59	enough cells to score	inactive
5	Add3	-0.52	1.54	1.54	enough cells to score	inactive
6	Usp4	-0.13	1.51	1.47	enough cells to score	inactive
7	Neurod6	-0.5	1.7	1.52	enough cells to score	inactive
8	Hsp90b1	-0.96	1.34	1.4	enough cells to score	inactive
9	Col1a2	-0.79	1.3	1.33	enough cells to score	inactive
10	Btg3	-0.16	1.61	1.57	enough cells to score	inactive
11	Arhgap6	0.14	1.54	1.73	enough cells to score	inactive
12	Prlhr	0.56	1.62	1.63	enough cells to score	inactive
13	Ly86	-0.83	1.58	1.43	enough cells to score	inactive

Taken from above.
Value for Add3 under “low cell count flag”: enough cells to score
Entry of Wdr74 under “activity call”: inactive
For “activity call”, Arhgap24 reads inactive

Continued.
no.	gene knocked down	p65 translocation robust z-score	nuclear/cytoplasmic p65 ratio, rep 1	nuclear/cytoplasmic p65 ratio, rep 2	low cell count flag	activity call
14	Fam20b	0.54	1.51	1.6	enough cells to score	inactive
15	Sult1a1	-0.71	1.47	1.44	enough cells to score	inactive
16	Rnf151	0.93	1.52	1.46	enough cells to score	inactive
17	Sun3		1.22	1.57	fewer than 50 cells per well; well left out of scoring	inactive
18	Krt35	0	1.44	1.41	enough cells to score	inactive
19	Col4a5	-0.12	1.4	1.41	enough cells to score	inactive
20	Cct6b	-1.17	1.32	1.23	enough cells to score	inactive
21	Zfp711		1.33	1.52	fewer than 50 cells per well; well left out of scoring	inactive
22	Dnajc5g		1.33	1.1	fewer than 50 cells per well; well left out of scoring	inactive
23	Or8g33	1.8	1.6	1.45	enough cells to score	inactive
24	Pex12	-0.89	1.27	1.35	enough cells to score	inactive
